Assay results reported in article PMC8051872.
Results are given in words; binding and its absence hold for the method and conditions named. Where a sequence is shown, tags or fusion partners need not be part of it.

Molecular target: MBP-CUB1-2-His (C1275S) (human) (UniProt Q76LX8)
Assay: SEC; gel filtration on HiPrep 26/60 Sephacryl S-200HR in 20 mM Hepes (pH 7.5), 150 mM NaCl, 5 mM CaCl2, 5 mM maltose, after Ni2+-chelating chromatography; monodisperse peaks; both purified

B1: MBP-CUB1-2-His (C1275S) (domain or fragment, UniProt Q76LX8 1189-1427)
chain: SSACGRQHLEPTGTIDMRGPGQADCAVAIGRPLGEVVTLRVLESSLNCSAGDMLLLWGRLTWRKMCRKLLDMTFSSKTNTLVVRQRSGRPGGGVLLRYGSQLAPETFYRECDMQLFGPWGEIVSPSLSPATSNAGGCRLFINVAPHARIAIHALATNMGAGTEGANASYILIRDTHSLRTTAFHGQQVLYWESESSQAEMEFSEGFLKAQASLRGQYWTLQSWVPEMQDPQSWKGKEGT
modifications: N-linked glycans on Asn1235 and Asn1354
binding: no binding
